# PubChem BioAssay AID445 (National Center for Advancing Translational Sciences (NCATS), 2006)
# The list shows a part of the results. The main result of the screen is listed elsewhere. These columns were measured beside it and carry no call. Most of these compounds were active or inconclusive in the main read-out, so they are no random draw. Potencies come from curve fits of mixed quality, noted in brackets.
# Test: IkB Signaling
# Settings: ABC-DLBCL IkBa-CBG/CBR dual luciferase ratio (green luciferase fused to IkBa over red control in OCI-Ly3 lymphoma cells), 4 h
# Outline: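 Curves were fitted separately to fusion (green), unfused (red) and ratio luminescence, then classed by r2, magnitude and activity. Cells: OCI-Ly3, 4 h compound plus doxycycline at 37C; 10 uM MG-132 defined full response.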
# [1] = measured here: control luc red channel
# [2] = measured here: IkB-luc green channel
Structure (SMILES),AC50 [1],AC50 [2]
Cc1c(C(c2ccc(O)cc2)c2c(O)c3ccccc3oc2=O)c(=O)n(-c2ccccc2)n1C (stereo unspecified),"2.51 µM [falling, full curve]",–
CCOc1ccc(CN2C(=O)c3ccccc3Sc3ccc(C(=O)N4CCC5(CC4)OCCO5)cc32)cc1,"12.6 µM [falling, partial curve]",–
O=c1c2ccccc2nc(/C=C\c2cccc(Br)c2)n1-c1ccc(O)cc1,"15.8 µM [falling, partial curve]",–
Cc1cccc(-n2c(/C=C/c3cccc4ccccc34)nc3ccccc3c2=O)c1,"39.8 µM [falling, single point]",–
CCSc1nnc(NC(=O)c2cccn(Cc3ccc(Cl)cc3)c2=O)s1,"0.00631 µM [falling, full curve, poor fit]",–
O=C(Nc1ccc2c(c1)OCO2)c1cccn(Cc2ccc(F)cc2)c1=O,"12.6 µM [falling, single point]",–
CCOc1ccc(Br)c(C2(O)CC(C)N(C)CC2C)c1 (stereo unspecified),"31.6 µM [falling, partial curve, poor fit]",–
Cn1c(=O)n(C)c2cc(CNCCc3ccccc3)ccc21,"25.1 µM [rising, single point]",–
CCN1CCN(C(=O)COc2ccc(S(=O)(=O)N(C)Cc3ccccc3)cc2)CC1,"15.8 µM [falling, partial curve]",–
Oc1c(Cl)c(Cl)cc(Cl)c1Cl,"39.8 µM [falling, single point]",–
CCCCCCCCCCCCCC(=O)O[C@H]1[C@@H](C)[C@@]2(O)[C@@H](C=C(CO)C[C@]3(O)C(=O)C(C)=C[C@@H]23)C2C(C)(C)[C@]21OC(C)=O (stereo partly specified),"0.00251 µM [rising, full curve]","0.00251 µM [rising, full curve]"
Ic1ccccc1CN[C@@H]1C2CCN(CC2)[C@H]1C(c1ccccc1)c1ccccc1,–,"39.8 µM [falling, partial curve, poor fit]"
COc1ccccc1-n1c(/C=C/c2ccccc2)nc2ccccc2c1=O,"31.6 µM [falling, single point]",–
Nc1ccccc1O.O.O=C(O)[C@H]1[O][Sb][O][C@H]1C(=O)O,"3.98 µM [falling, partial curve]","3.16 µM [rising, partial curve]"
Cc1oc(-c2ccc(Cl)cc2)nc1CN1C(=O)CN=C(c2ccccc2)c2cc(Cl)ccc21,"20 µM [falling, single point]",–
Cc1ccccc1C1=NCC(=O)N(CC(=O)NCc2ccco2)c2sc3c(c21)CCCC3,"15.8 µM [falling, partial curve]",–
O=C(c1ccc2c(c1)N(Cc1ccc(F)cc1Cl)C(=O)c1ccccc1S2)N1CCC2(CC1)OCCO2,"25.1 µM [falling, partial curve]",–
CCCCCCC(C)(C)c1ccc([C@@H]2C[C@H](O)CC[C@@H]2CCCO)c(O)c1,"15.8 µM [falling, full curve]",–
CN1C[C@H](C(=O)N[C@]2(C)O[C@@]3(O)[C@@H]4CCCN4C(=O)[C@H](Cc4ccccc4)N3C2=O)C=C2c3cccc4[nH]cc(c34)C[C@H]21,"10 µM [falling, partial curve]",–

Structure (SMILES),AC50 [1],AC50 [2]
Nc1c(C(=O)Nc2ccc(OC(F)(F)F)cc2)sc2nc3c(cc12)N1CCC3CC1,"31.6 µM [falling, single point]",–
CCCNc1oc(-c2cccc3ccccc23)nc1C#N,"3.16 µM [rising, full curve]",–
C[C@@H]1O[C@@H](O[C@H]2C[C@@H](O)[C@]3(CO)[C@@H]4[C@@H](O)C[C@]5(C)[C@H](C6=CC(=O)OC6)CC[C@@]5(O)[C@H]4CC[C@@]3(O)C2)[C@H](O)[C@H](O)[C@@H]1O,–,"0.2 µM [falling, full curve]"
O=C1/C(=C\c2ccccc2)C[C@@]2(O)[C@H]3Cc4ccc(O)c5c4[C@@]2(CCN3CC2CC2)[C@@H]1O5,"3.16 µM [falling, full curve]",–
CN[C@@H](C)[C@@H](O)c1ccccc1,"31.6 µM [falling, partial curve]","15.8 µM [rising, partial curve]"
N#Cc1cc([N+](=O)[O-])ccc1NC(=O)c1cccn(Cc2cccc(F)c2)c1=O,"25.1 µM [rising, partial curve]",–
O=C(Nc1ccc2c(c1)OCCO2)c1cccn(Cc2cccc([N+](=O)[O-])c2)c1=O,"39.8 µM [falling, single point]",–
C=CCN1C(=O)C2(C(C(=O)OCC)=C(N)Oc3c2c(=O)oc2ccccc32)c2ccccc21 (stereo unspecified),"0.398 µM [falling, full curve, poor fit]",–
O=C(CCl)c1ccc(Cl)cc1Cl,"10 µM [falling, full curve]","1 µM [rising, full curve]"
COC[C@@H]1OC(=O)c2coc3c2[C@]1(C)C1=C(C3=O)[C@H]2CCC(=O)[C@]2(C)C[C@@H]1OC(C)=O,"2.51 µM [rising, full curve]","6.31 µM [rising, partial curve]"
CN1CCN(c2csc3ccc(F)cc3c2=O)CC1,"39.8 µM [falling, single point]",–
COP(=O)(OC)OC=C(Cl)Cl,"0.01 µM [rising, full curve, poor fit]","39.8 µM [rising, single point]"
CC(=O)c1c(O)c(C)c(O)c(Cc2c(O)c3c(c(C(=O)/C=C\c4ccccc4)c2O)OC(C)(C)C=C3)c1O,"12.6 µM [falling, partial curve]",–
Cc1nc2cc(F)ccc2n1C1CCN(Cc2nnnn2CCc2ccccc2)CC1,"25.1 µM [falling, partial curve]",–
N#CC(C#N)=Cc1ccc(O)c(O)c1,"31.6 µM [falling, partial curve]",–
Cc1ccc(-n2c(/C=C/c3cc(Br)cs3)nc3ccccc3c2=O)cc1C,"39.8 µM [falling, single point]",–
C=C(C)[C@H]1Cc2c(ccc3c2O[C@H]2COc4cc(OC)c(OC)cc4[C@@H]2C3=O)O1,–,"3.16 µM [rising, full curve]"
COCCCn1c(N)c(C(=O)NCCC(C)C)c2nc3ccccc3nc21,"15.8 µM [falling, partial curve]",–
CC[C@]1(OC(=O)CN)C(=O)OCc2c1cc1n(c2=O)Cc2cc3ccccc3nc2-1,"0.126 µM [falling, full curve]",–

Structure (SMILES),AC50 [1],AC50 [2]
[Cl-].[Cl-].[Hg+2],"1.26 µM [falling, full curve]","0.0398 µM [rising, full curve, poor fit]"
Cn1c(=O)n(C)c2cc(CNCCc3ccccc3F)ccc21,"20 µM [rising, partial curve]",–
Cc1ccc(-n2c(/C=C/c3ccccc3)nc3ccccc3c2=O)cc1Cl,"20 µM [falling, single point]",–
O=C1CC(c2ccccc2Br)c2c(c3ccccc3oc2=O)O1 (stereo unspecified),"25.1 µM [falling, single point]",–
Oc1cc2c(cc1O)[C@H]1c3ccccc3CN[C@H]1CC2,"31.6 µM [falling, partial curve]",–
Fc1ccc(C(OCCN2CCN(C/C=C\c3ccccc3)CC2)c2ccc(F)cc2)cc1,"31.6 µM [falling, partial curve]",–
COc1cc2ccccc2c2cc([N+](=O)[O-])oc12,"3.98 µM [falling, partial curve]",–
CC(=O)O[C@H]1C[C@@H](O[C@@H]2[C@H](C)O[C@H](O[C@@H]3[C@H](C)O[C@H](O[C@@H]4CC[C@@]5(C)[C@@H](CC[C@]6(C)[C@]5(C)C[C@H](O)[C@]5(C)[C@@H](C7=CC(=O)OC7)CC[C@@]56O)C4)C[C@@H]3O)C[C@@H]2O)O[C@@H](C)[C@H]1O[C@H]1O[C@@H](CO)[C@@H](O)[C@@H](O)[C@@H]1O,"2 µM [falling, full curve, poor fit]",–
CCNc1nc(Cl)nc(NC(C)C)n1,"5.01 µM [rising, partial curve, poor fit]",–
Oc1c(Br)c(Br)c(Br)c(Br)c1Br,"2.51 µM [falling, full curve]",–
BrCC(Br)(Br)Br,–,"31.6 µM [rising, partial curve]"
CCOC(=O)c1ccc(NC(=O)c2cccn(Cc3ccccc3F)c2=O)cc1,"3.98 µM [rising, full curve]",–
O=C1Nc2cc(Cl)c(Cl)cc2N2CCNC[C@H]12,"39.8 µM [falling, partial curve]",–
CSC([N-]/N=C/c1cccc(C)n1)=[S]=[Cu].CS[C@H]([S-])[N-]/N=C/c1cccc(C)n1,"0.794 µM [falling, full curve]","1 µM [rising, partial curve]"
N#Cc1ccccc1NC(=O)c1cccn(Cc2ccccc2)c1=O,"3.16 µM [falling, single point]",–
NCC#Cc1ccccc1,"31.6 µM [falling, partial curve]","5.01 µM [rising, partial curve, poor fit]"
O=C(Cn1cc(C(=O)c2ccccc2)c2ccccc21)Nc1ccc(Br)cc1,"7.94 µM [falling, partial curve]",–
COc1ccc(-c2nc(CN3C(=O)CN=C(c4ccccc4Cl)c4cc(Cl)ccc43)c(C)o2)cc1OC,"15.8 µM [falling, partial curve]",–
CNc1ccc2oc(C[C@H]3O[C@]4(CC[C@H]3C)O[C@H]([C@H](C)C(=O)c3ccc[nH]3)[C@H](C)C[C@H]4C)nc2c1C(=O)O,"10 µM [falling, partial curve]",–

# Whole records, quoted from the list. Values in the order: AC50 [1] | AC50 [2]
# `BrCC(Br)(Br)Br` in the list: – | 31.6 µM [rising, partial curve]
# `Cn1c(=O)n(C)c2cc(CNCCc3ccccc3F)ccc21` in the list: 20 µM [rising, partial curve] | –
# `COc1cc2ccccc2c2cc([N+](=O)[O-])oc12` in the list: 3.98 µM [falling, partial curve] | –
